Hit rate of the full screen: of about 220,000 compounds, about 2,400 (1.1%) were called active. The shares of active, inactive and inconclusive entries below differ from those in the screen. Calls follow the shape of the dose curve; as a rule, active = well fitted inhibition curve with a large enough effect; inconclusive = small, poorly fitted or top-dose-only effect, or effect the other way; inactive = no such curve, though single readings can be large or run the other way. Where the call is inconclusive, the potency comes from a doubtful curve fit.
Experiment: qHTS Multiplex Assay to Identify Dual Action Probes in a Cell Model of Huntington: Aggregate Formation (GFP); also: nearly all actives have a fitted effect of over 60% in size
Conditions: PC12 HttQ103-GFP aggregates, Acumen cytometry, 40 h; activity change, negative = inhibition: at 46.1 µM (top of the series) unless noted
In short: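 Aggregates are detected as GFP objects 1–25 µm with signal 6 STDEV over background in lysates of induced PC12 cells. These carry Huntingtin exon 1 with 103 glutamines fused to GFP under an ecdysone promoter; compounds titrated.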
% is scaled to controls: 0 for no effect and ±100 for the full control effect; potency is read from the fitted curve at half-maximal effect.

| SMILES | activity change, negative = inhibition | Potency |
| --- | --- | --- |
| CCc1cc2ccc(C)cc2nc1SCC(=O)N1CCN(C(=O)c2ccco2)CC1 | inactive: -12.4% |  |
| N#Cc1ccccc1S(=O)(=O)Nc1ccc2c(c1)C(=O)OC2 | inactive: 7.69% [at 9.22 µM] |  |
| O=[N+]([O-])c1cc(Cl)cc(/C=N/NC(=S)Nc2ccc(S(=O)(=O)N3CCOCC3)cc2)c1O | inactive: 3.31% [at 9.22 µM] |  |
| COc1ccc(NC(=O)c2ccc(-c3ccc([N+](=O)[O-])cc3)o2)cc1 | inactive: 19.5% |  |
| CCOC(=O)N1CCC(N2CC34C=CC(O3)C(C(=O)O)C4C2=O)CC1 (stereo not given) | inactive: -12% |  |
| Cc1ccc(Oc2nnc(-c3ccccc3)c3ccccc23)cc1 |  | inconclusive: 17.8 µM [inhibitor, single point] |
| CCOc1ccc(Cn2ccnc2CCl)cc1[N+](=O)[O-] |  | inconclusive: 6.31 µM [activator, partial curve, poor fit] |
| Cc1ccc(N2C(=O)c3ccc(C(=O)N4CCN(c5ccc(C)c(C)c5)CC4)cc3C2=O)cc1 |  | inconclusive: 35.5 µM [activator, single point] |
| CS(=O)(=O)N(CCc1ccccc1)CC(=O)N1CCN(c2ccccc2F)CC1 |  | inconclusive: 0.447 µM [inhibitor, full curve] |
| O=C(CN1CCN(CCC(=O)Nc2ccccc2F)CC1)Nc1ccc(Cl)cc1 |  | inconclusive: 35.5 µM [activator, single point] |
| CCOC(=O)c1cc2oc(C)cc2n1CC(=O)OC1CCCCC1 |  | inconclusive: 3.55 µM [inhibitor, single point] |
| O=C(CN1CCSC1=NCc1ccccc1)c1ccc(Cl)cc1 | inactive: 26.8% |  |
| O=C(NCCNc1ccc([N+](=O)[O-])cc1)c1ccc(Cl)cc1 | inactive: -7.16% |  |
| Nn1c(SCc2cn3ccsc3n2)nnc1-c1ccncc1 |  | inconclusive: 3.16 µM [inhibitor, single point] |
| Oc1ccc(Cl)cc1-c1cc(-c2ccco2)[nH]n1 |  | inconclusive: 6.31 µM [inhibitor, single point] |
| CCOc1ccc(N2C(=O)CC(NCCc3ccc(S(N)(=O)=O)cc3)C2=O)cc1 (stereo not given) | inactive: 4.13% |  |
| Cc1cc(C(=O)CSc2nnc(-c3ccc(F)cc3)o2)c(C)n1CC1CCCO1 (stereo not given) |  | inconclusive: 11.2 µM [inhibitor, partial curve] |
| CCOC(=O)c1c(CC(C)C)csc1N | inactive: 21.8% |  |
| Nn1c(Nc2ccccc2)nc2sc3c(c2c1=O)CCC3 |  | inconclusive: 17.8 µM [inhibitor, partial curve] |
| CC(C)=C1C2CCC1C1C(=O)N(c3nc(-c4ccc(C(C)C)cc4)c(C)s3)C(=O)C21 (stereo not given) |  | inconclusive: 31.6 µM [inhibitor, single point] |
| O=[N+]([O-])c1cc(-c2ncccn2)c([N+](=O)[O-])s1 |  | inconclusive: 35.5 µM [inhibitor, single point] |
| Cc1c(C(=O)COC(C)(C)C)[nH]c2ccccc12 |  | inconclusive: 22.4 µM [inhibitor, single point] |
| Cn1c(SCc2nnc(-c3ccccc3Br)o2)nc2sc3c(c2c1=O)CCC3 |  | inconclusive: 8.91 µM [inhibitor, partial curve] |

| SMILES | activity change, negative = inhibition | Potency |
| --- | --- | --- |
| Cn1cccc1Cc1nnc(SCC(=O)NCc2ccccc2Cl)n1-c1ccc(F)cc1 | inactive: -2.81% |  |
| CN(C)c1ccc(N=Cc2nc(-c3ccccc3)oc2OC(=O)c2cccc(Cl)c2)cc1 |  | inconclusive: 2.24 µM [activator, single point] |
| O=C(CSc1ncn[nH]1)NC1CC2CCC1C2 (stereo not given) | inactive: -21.5% |  |
| CCS(=O)(=O)c1ccc(C(=O)Nc2cccc(Cl)c2)c(Cl)c1Cl |  | inconclusive: 17.8 µM [inhibitor, single point] |
| Cc1cccc(N2CCN(C(=O)Cc3cn(C)c4ccccc34)CC2)c1C |  | inconclusive: 1.12 µM [activator, full curve, poor fit] |
| COc1cc(CNc2ccc3[nH]c(=O)[nH]c3c2)cc(Br)c1OCC(=O)NC(C)(C)C |  | inconclusive: 10 µM [activator, partial curve] |
| CCC(C)(C)NC(=O)C(c1ccc(C)cc1)N(Cc1cccs1)C(=O)c1ccc2c(c1)OCCO2 (stereo not given) |  | inconclusive: 22.4 µM [inhibitor, single point] |
| Cc1noc(C)c1COc1cccc(C(=O)NCc2ccccc2Cl)c1 | inactive: -4.69% |  |
| CCN(CC)c1ccc2cc(-c3nnc(-c4ccncc4)o3)c(=O)oc2c1 |  | active: 2.51 µM |
| CCC/C=N/NC(=O)c1[nH]c2c([N+](=O)[O-])cccc2c1C |  | inconclusive: 11.2 µM [inhibitor, partial curve] |
| Oc1cccc2ccc(Nc3ccccn3)nc12 |  | active: 3.55 µM |
| O=C(CSc1nc(O)c(Cc2ccccc2F)c(=O)[nH]1)N1CCCCCC1 |  | inconclusive: 11.2 µM [activator, partial curve] |
| CCOC(=O)c1c(-c2ccccc2)csc1/N=C/C1C(=O)CCCC1=O |  | inconclusive: 35.5 µM [activator, single point] |
| Cc1ccc2c(c1)cc(CN(Cc1ccc3c(c1)OCO3)C(=O)c1cnccn1)c1nnnn12 | inactive: -0.375% |  |
| COc1ccc(C2=C(Nc3ccc(F)cc3)c3ccccc3C2=O)cc1 |  | inconclusive: 35.5 µM [inhibitor, single point] |
| Cc1ccc(S(=O)(=O)Nc2cc(C(=O)Nc3cc(C)cc(C)c3)ccc2Cl)cc1 |  | inconclusive: 35.5 µM [inhibitor, single point] |
| CCOc1ccc(OCC)c(C2C(C#N)=C(N)N(c3cccnc3)C3=C2C(=O)CC(C)(C)C3)c1 (stereo not given) |  | inconclusive: 10 µM [activator, single point] |
| c1ccc(C2=NN(c3ccccc3)C(c3ccco3)C2)cc1 (stereo not given) | inactive: -10.6% [at 9.22 µM] |  |
| Cc1cc(C(F)F)nn1CC(=O)Nc1cc([N+](=O)[O-])ccc1F | inactive: -1.23% |  |
| C=CCNC(=O)C(C)Sc1ccc(Cl)cc1 (stereo not given) | inactive: 7.45% |  |
| CCCCOc1ccc(-c2cc(C(=O)NNC(=S)NCC)c3ccccc3n2)cc1 |  | inconclusive: 35.5 µM [inhibitor, single point] |
| Cc1ccccc1CN(C)CC(=O)Nc1cccc(S(=O)(=O)N(C)c2ccccc2)c1 |  | inconclusive: 17.8 µM [inhibitor, single point] |

Entries above with an aryl methoxy group (3):

| SMILES | activity change, negative = inhibition | Potency |
| --- | --- | --- |
| COc1ccc(NC(=O)c2ccc(-c3ccc([N+](=O)[O-])cc3)o2)cc1 | inactive: 19.5% |  |
| COc1cc(CNc2ccc3[nH]c(=O)[nH]c3c2)cc(Br)c1OCC(=O)NC(C)(C)C |  | inconclusive: 10 µM [activator, partial curve] |
| COc1ccc(C2=C(Nc3ccc(F)cc3)c3ccccc3C2=O)cc1 |  | inconclusive: 35.5 µM [inhibitor, single point] |

Reference: PubChem BioAssay AID1688 (National Center for Advancing Translational Sciences (NCATS), 2009)
